# Results from publication PMC7710697.
# Protein sequences, listed by entry. Tags and fused reporters are not part of them.
# UniProt Q9GZV5: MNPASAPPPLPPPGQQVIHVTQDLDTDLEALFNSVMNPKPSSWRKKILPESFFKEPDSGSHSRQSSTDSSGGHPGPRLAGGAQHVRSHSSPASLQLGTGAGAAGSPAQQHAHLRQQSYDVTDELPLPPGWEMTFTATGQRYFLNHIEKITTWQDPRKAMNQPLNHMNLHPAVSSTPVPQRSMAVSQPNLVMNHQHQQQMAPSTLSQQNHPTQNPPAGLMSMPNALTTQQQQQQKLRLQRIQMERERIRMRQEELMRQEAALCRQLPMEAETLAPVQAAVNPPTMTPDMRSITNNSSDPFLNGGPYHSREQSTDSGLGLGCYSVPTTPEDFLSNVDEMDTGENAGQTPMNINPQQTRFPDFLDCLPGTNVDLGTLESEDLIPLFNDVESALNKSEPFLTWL
# No constants are given. Whether binding was seen depends on the method and setting. Binding seen in cells or lysates may run through a third protein. Some binding calls cover weakened binding; strength is not graded here.
# T1: SKIL (UniProt P12757)
# T1 sequence: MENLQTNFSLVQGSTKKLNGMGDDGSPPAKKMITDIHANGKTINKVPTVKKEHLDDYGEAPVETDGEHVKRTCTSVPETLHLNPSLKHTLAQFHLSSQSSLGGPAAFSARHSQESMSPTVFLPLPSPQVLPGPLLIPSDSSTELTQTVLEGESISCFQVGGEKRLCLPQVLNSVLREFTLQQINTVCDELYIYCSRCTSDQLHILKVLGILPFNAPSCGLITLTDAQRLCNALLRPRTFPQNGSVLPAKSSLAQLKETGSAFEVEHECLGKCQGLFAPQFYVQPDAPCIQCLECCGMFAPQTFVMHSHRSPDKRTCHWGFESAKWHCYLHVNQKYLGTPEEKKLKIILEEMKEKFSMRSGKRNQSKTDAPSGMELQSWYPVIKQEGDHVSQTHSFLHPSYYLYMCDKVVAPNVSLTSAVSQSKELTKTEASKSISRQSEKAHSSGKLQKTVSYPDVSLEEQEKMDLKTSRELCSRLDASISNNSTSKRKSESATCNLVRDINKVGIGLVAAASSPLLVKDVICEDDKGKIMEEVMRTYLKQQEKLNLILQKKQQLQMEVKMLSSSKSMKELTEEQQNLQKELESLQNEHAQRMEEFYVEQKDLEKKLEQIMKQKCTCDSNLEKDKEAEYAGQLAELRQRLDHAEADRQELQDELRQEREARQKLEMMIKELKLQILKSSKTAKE
# B1: Salvador (protein, UniProt Q9H4B6 1-383)
# chain: MLSRKKTKNEVSKPAEVQGKYVKKETSPLLRNLMPSFIRHGPTIPRRTDICLPDSSPNAFSTSGDVVSRNQSFLRTPIQRTPHEIMRRESNRLSAPSYLARSLADVPREYGSSQSFVTEVSFAVENGDSGSRYYYSDNFFDGQRKRPLGDRAHEDYRYYEYNHDLFQRMPQNQGRHASGIGRVAATSLGNLTNHGSEDLPLPPGWSVDWTMRGRKYYIDHNTNTTHWSHPLEREGLPPGWERVESSEFGTYYVDHTNKKAQYRHPCAPSVPRYDQPPPVTYQPQQTERNQSLLVPANPYHTAEIPDWLQVYARAPVKYDHILKWELFQLADLDTYQGMLKLLFMKELEQIVKMYEAYRQALLTELENRKQRQQWYAQQHGKNF
# Target: T1, SKIL
# Assay: co-IP; anti-SKIL antibody on protein A-Sepharose beads precipitates endogenous SKIL from cell lysates; high-salt lysis buffer (420 mM NaCl, 50 mM HEPES-KOH pH 7.8, 5 mM EDTA, 0.1% NP-40, 3 mM dithiothreitol); precipitate analysed by western blot
row,Molecule,binding
1,TAZ (from UniProt Q9GZV5 1-400),no binding
2,B1,binds
